# Some of the results follow. Most values lie at the level of the controls, where differences are scatter.
# Protein sequences, listed by entry. Tags and fused reporters are not part of them. Lines headed by an entry give the natural chain unless they say otherwise; changes in a name come on top.
# UniProt P63054, whole entry: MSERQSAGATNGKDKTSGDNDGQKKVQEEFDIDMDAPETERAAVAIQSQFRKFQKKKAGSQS
# UniProt P54923: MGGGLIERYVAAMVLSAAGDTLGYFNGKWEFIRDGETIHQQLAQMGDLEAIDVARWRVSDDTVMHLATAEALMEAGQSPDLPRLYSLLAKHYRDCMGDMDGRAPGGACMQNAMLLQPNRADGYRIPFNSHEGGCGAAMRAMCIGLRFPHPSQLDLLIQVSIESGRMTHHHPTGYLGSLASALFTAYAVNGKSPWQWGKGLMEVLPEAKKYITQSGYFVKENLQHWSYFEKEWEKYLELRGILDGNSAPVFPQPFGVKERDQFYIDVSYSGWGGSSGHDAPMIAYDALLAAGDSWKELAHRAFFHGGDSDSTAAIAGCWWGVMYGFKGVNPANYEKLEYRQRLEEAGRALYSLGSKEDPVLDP
# UniProt P63030: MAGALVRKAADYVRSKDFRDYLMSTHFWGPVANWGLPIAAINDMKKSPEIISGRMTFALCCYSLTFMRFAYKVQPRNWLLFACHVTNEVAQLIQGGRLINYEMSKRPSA
# UniProt P55104: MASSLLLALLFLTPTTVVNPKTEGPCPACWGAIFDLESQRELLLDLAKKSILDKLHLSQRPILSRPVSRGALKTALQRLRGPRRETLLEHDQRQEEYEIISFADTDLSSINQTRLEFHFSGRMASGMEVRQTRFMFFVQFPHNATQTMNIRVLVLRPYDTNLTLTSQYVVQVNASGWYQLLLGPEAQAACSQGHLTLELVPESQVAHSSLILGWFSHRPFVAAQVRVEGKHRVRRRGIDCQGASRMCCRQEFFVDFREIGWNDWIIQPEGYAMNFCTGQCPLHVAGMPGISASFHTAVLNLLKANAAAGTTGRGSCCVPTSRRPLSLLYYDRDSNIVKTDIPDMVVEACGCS
# UniProt P54751: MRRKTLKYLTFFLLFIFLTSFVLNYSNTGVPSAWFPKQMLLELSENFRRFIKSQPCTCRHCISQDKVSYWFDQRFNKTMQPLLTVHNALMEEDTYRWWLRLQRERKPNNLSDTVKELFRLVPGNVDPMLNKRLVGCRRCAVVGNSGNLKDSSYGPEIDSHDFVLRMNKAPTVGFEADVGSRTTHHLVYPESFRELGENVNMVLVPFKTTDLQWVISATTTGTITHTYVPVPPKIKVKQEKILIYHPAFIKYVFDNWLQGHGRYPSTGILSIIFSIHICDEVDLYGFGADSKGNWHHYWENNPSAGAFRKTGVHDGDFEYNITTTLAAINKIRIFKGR
# UniProt P58544: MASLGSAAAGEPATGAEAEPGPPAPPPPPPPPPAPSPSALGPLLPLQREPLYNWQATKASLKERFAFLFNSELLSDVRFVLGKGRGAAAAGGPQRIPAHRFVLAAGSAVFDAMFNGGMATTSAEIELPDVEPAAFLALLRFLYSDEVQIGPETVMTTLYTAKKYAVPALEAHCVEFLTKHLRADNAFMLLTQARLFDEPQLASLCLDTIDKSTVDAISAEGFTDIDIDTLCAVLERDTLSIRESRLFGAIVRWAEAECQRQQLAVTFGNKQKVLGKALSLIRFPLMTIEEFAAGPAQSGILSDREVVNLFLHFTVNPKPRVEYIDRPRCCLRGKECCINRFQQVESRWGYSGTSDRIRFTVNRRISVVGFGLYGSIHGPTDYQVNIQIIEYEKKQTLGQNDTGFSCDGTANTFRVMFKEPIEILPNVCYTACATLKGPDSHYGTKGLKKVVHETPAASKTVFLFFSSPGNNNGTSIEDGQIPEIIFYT
# UniProt P54310: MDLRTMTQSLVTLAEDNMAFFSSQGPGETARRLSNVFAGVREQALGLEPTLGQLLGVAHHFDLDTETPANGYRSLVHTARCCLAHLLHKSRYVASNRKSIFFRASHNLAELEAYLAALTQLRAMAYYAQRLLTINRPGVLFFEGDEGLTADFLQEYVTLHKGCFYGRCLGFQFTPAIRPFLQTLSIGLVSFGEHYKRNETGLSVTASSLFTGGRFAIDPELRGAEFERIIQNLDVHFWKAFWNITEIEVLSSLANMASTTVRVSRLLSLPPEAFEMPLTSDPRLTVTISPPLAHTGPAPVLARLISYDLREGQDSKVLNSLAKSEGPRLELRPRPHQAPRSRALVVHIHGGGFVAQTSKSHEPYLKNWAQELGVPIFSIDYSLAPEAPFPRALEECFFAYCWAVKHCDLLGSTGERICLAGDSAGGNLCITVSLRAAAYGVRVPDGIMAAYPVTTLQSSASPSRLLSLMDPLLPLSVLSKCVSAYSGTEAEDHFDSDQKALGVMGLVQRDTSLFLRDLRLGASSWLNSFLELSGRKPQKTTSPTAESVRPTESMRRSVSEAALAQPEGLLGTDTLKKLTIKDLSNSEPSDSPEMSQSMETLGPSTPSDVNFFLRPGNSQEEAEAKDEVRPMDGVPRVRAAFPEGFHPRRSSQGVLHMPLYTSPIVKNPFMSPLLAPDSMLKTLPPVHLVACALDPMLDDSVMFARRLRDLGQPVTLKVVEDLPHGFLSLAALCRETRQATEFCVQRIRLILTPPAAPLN
# UniProt P56960: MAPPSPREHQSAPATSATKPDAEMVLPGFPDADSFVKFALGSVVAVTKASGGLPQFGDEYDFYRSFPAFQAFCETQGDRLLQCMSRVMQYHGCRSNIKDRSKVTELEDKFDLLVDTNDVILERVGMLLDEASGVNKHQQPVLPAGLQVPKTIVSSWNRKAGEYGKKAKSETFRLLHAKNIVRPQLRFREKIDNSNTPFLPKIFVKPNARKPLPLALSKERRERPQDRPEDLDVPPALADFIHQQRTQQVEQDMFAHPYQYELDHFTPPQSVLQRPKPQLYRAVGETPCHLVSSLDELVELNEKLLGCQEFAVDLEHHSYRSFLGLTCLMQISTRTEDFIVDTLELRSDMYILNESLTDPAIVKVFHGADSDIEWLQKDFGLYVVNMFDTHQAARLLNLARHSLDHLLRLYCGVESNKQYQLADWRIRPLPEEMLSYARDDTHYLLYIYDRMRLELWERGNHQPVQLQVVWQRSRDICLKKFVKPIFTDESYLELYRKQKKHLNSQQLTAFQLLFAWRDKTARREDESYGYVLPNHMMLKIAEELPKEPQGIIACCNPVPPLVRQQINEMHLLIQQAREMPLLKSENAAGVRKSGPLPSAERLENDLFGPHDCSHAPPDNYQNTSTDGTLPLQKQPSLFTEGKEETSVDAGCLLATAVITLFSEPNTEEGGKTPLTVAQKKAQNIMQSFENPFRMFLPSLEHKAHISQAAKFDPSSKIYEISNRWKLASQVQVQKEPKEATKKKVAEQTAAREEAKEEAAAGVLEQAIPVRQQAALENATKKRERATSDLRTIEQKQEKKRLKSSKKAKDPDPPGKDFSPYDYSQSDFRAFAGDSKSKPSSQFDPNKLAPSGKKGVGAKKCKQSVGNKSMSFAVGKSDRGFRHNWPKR
# UniProt P54729: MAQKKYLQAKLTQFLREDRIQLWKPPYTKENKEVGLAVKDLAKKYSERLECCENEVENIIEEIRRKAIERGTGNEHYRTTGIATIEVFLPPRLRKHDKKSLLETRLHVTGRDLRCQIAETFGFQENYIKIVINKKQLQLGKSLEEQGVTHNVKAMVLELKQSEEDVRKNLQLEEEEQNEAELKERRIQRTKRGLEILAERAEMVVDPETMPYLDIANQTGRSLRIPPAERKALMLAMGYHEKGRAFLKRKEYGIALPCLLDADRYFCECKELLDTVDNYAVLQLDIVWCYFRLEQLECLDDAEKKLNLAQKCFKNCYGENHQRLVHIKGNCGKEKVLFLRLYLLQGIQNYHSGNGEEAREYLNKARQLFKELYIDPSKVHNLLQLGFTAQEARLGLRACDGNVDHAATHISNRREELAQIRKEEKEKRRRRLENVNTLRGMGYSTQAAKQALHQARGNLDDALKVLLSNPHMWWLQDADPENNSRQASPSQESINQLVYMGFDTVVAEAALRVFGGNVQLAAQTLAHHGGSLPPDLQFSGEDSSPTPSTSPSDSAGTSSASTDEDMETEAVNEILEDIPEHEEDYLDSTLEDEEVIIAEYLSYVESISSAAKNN
# UniProt P56655: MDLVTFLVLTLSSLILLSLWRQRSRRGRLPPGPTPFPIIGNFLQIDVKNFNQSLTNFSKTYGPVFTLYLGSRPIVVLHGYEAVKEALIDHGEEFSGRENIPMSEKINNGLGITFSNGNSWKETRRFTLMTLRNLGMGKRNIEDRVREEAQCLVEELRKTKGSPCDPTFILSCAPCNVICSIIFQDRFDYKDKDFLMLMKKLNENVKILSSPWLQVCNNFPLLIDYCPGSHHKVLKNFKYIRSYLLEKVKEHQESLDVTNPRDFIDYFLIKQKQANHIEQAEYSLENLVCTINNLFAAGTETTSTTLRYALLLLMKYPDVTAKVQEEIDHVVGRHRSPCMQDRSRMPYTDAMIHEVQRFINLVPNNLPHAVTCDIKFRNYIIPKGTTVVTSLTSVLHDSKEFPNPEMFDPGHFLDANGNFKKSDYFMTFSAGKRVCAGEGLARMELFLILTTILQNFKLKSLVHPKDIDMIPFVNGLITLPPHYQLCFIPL
# UniProt P60122, whole entry: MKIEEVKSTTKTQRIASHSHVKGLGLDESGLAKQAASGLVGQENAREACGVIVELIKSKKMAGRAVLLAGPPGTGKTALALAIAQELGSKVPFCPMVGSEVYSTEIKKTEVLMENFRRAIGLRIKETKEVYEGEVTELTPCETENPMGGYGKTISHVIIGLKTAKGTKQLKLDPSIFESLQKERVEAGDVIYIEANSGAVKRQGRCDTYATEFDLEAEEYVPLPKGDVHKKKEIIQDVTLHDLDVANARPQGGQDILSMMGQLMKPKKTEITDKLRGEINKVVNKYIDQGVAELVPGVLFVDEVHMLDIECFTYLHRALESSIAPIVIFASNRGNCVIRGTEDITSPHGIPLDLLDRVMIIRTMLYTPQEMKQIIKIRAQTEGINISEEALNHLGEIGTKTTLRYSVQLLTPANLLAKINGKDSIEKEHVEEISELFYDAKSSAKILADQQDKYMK
# UniProt P59913: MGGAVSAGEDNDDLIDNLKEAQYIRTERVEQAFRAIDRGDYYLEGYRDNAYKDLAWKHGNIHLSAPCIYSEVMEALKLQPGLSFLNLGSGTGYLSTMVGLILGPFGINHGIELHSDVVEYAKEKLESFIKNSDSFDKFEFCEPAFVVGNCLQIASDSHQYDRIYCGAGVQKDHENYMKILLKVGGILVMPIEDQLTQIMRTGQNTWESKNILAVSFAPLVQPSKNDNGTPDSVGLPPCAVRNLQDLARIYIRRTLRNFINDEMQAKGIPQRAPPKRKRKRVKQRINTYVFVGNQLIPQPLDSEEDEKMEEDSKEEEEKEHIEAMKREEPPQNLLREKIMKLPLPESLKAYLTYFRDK
# UniProt P58137: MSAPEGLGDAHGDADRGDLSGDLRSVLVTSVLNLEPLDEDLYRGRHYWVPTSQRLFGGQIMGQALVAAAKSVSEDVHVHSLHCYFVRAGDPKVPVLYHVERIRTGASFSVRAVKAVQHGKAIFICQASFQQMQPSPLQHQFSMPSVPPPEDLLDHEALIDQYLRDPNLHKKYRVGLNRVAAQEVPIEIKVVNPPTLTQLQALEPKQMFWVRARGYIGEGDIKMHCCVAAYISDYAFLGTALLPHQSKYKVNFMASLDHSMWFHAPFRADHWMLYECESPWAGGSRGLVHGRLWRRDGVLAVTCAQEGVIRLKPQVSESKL
# UniProt P59048, whole entry: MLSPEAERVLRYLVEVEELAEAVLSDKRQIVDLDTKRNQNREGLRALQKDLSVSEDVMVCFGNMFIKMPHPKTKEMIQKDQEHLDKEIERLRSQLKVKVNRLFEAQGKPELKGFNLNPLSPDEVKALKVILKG
# UniProt P59222: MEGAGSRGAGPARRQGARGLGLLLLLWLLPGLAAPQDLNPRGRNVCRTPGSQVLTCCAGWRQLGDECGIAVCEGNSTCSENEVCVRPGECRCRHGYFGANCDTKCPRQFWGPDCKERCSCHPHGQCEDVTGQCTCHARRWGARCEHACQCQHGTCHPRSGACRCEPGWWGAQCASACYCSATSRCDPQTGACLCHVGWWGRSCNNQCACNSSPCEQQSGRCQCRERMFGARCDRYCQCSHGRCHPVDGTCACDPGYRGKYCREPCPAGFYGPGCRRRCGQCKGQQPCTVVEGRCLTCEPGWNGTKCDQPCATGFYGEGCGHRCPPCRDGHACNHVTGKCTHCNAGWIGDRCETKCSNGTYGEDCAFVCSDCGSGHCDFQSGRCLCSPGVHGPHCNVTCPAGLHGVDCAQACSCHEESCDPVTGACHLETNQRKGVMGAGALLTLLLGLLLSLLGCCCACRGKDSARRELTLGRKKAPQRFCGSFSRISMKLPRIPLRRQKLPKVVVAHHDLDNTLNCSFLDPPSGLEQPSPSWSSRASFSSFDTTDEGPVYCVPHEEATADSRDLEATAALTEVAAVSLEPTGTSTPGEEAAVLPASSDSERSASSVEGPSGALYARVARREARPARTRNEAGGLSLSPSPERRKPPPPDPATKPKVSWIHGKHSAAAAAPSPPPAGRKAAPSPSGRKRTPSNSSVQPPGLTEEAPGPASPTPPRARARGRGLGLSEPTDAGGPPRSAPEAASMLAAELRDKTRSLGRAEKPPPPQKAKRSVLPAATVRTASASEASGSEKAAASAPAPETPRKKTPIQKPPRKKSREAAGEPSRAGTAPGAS
# Compound: CN[C@@H]1C[C@H]2O[C@@](C)([C@@H]1OC)n1c3ccccc3c3c4c(c5c6ccccc6n2c5c31)C(=O)NC4 [staurosporine]
# Assay: log2 fold change of tryptic peptide abundance, ligand vs vehicle (limited proteolysis) (log2 ratio); higher = more trypsin-susceptible (destabilized)
# Details: ligand concentration: 20 uM; sample: mouse liver crude lysate; replicate design: treated separately
row,Target,log2 fold change
1,"UniProt P55012 (peptide sequence: DAVVAYTAESK, peptide start residue: 263)",-0.242
2,"UniProt P58069 (peptide sequence: NLLPYLGPNK, peptide start residue: 48)",-0.415
3,"UniProt P56959 (peptide sequence: GGFPSGGGGGGGQQR, peptide start residue: 401)",0.227
4,"UniProt P63054 (peptide sequence: AAVAIQSQFR, peptide start residue: 42)",-0.153
5,"UniProt P55292 (peptide sequence: GNENGNFK, peptide start residue: 398)",0.589
6,"UniProt P54923 (peptide sequence: GLMEVLPEAK, peptide start residue: 199)",0.0338
7,"UniProt P63030 (peptide sequence: LINYEMSK, peptide start residue: 98)",-0.215
8,"UniProt P58064 (peptide sequence: PRYELALILK, peptide start residue: 2)",0.393
9,"UniProt P59041 (peptide sequence: VSEAYLVLGSTILRR, peptide start residue: 87)",0.239
10,"UniProt P55104 (peptide sequence: GSCCVPTSR, peptide start residue: 314)",-0.749
11,"UniProt P63040 (peptide sequence: YLPGPLQDMFKK, peptide start residue: 123)",-0.293
12,"UniProt P56695 (peptide sequence: AALVMYWK, peptide start residue: 180)",0.37
13,"UniProt P54751 (peptide sequence: VSYWFDQR, peptide start residue: 67)",0.315
14,"UniProt P58544 (peptide sequence: ADNAFMLLTQAR, peptide start residue: 183)",0.815
15,"UniProt P56371 (peptide sequence: DLDADREVTFLEASR, peptide start residue: 129)",-0.45
16,"UniProt P58468 (peptide sequence: VTSKPRPVELSR, peptide start residue: 158)",0.107
17,"UniProt P58802 (peptide sequence: LPPDAALLSSK, peptide start residue: 412)",-0.194
18,"UniProt P56546 (peptide sequence: MALVDKHK, peptide start residue: 1)",-0.193

# In a second layout: results already given
row	Target	log2 fold change
7	UniProt P63030 (peptide sequence: LINYEMSK, peptide start residue: 98)	-0.215
8	UniProt P58064 (peptide sequence: PRYELALILK, peptide start residue: 2)	0.393
9	UniProt P59041 (peptide sequence: VSEAYLVLGSTILRR, peptide start residue: 87)	0.239

# Carrying on.

row,Target,log2 fold change
1,"UniProt P58462 (peptide sequence: HLNSEHALDDR, peptide start residue: 354)",-1.16
2,"UniProt P54310 (peptide sequence: QATEFCVQR, peptide start residue: 738)",-0.382
3,"UniProt P63044 (peptide sequence: RLQQTQAQVDEVVDIMR, peptide start residue: 31)",-0.136
4,"UniProt P56960 (peptide sequence: SGPLPSAER, peptide start residue: 593)",0.287
5,"UniProt P62137 (peptide sequence: YGQFSGLNPGGR, peptide start residue: 306)",0.134
6,"UniProt P54729 (peptide sequence: IQLWKPPYTKENK, peptide start residue: 20)",-0.381
7,"UniProt P59764 (peptide sequence: LISPPVPPRPTQTASPAR, peptide start residue: 1794)",0.169
8,"UniProt P58252 (peptide sequence: YFDPANGK, peptide start residue: 265)",-0.533
9,"UniProt P56581 (peptide sequence: AQDKVHYYIK, peptide start residue: 293)",0.507
10,"UniProt P56655 (peptide sequence: FTLMTLR, peptide start residue: 126)",0.0802
11,"UniProt P62631 (peptide sequence: NVSVKDIR, peptide start residue: 314)",-0.311
12,"UniProt P60122 (peptide sequence: MKIEEVK, peptide start residue: 1)",-0.185
13,"UniProt P59913 (peptide sequence: GIPQRAPPK, peptide start residue: 267)",-0.438
14,"UniProt P55194 (peptide sequence: LAAGASVLKR, peptide start residue: 313)",0.39
15,"UniProt P58137 (peptide sequence: LKPQVSESKL, peptide start residue: 311)",-0.0616
16,"UniProt P59048 (peptide sequence: LFEAQGKPELK, peptide start residue: 102)",0.169
17,"UniProt P57746 (peptide sequence: VNAIEHVIIPR, peptide start residue: 169)",0.587
18,"UniProt P59222 (peptide sequence: TPIQKPPR, peptide start residue: 806)",-0.278

# Reference: the supplement of paper PMC12819154, “High-throughput peptide-centric local stability assay extends protein–ligand identification to membrane proteins, tissues and bacteria” (Nature Structural & Molecular Biology, 2025)
